PubChem BioAssay AID602196 – INSERM | 2012
Screen: 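Genes whose knock-down alters cisplatin killing of lung cancer cells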. Cell system: human A549 lung cancer cells. Knock-down reagent: siRNA pair against human genes. Duration: 48 h transfection before cisplatin; time from cisplatin to read-out not stated. Treatment: cisplatin at a dose killing half of control-siRNA cells; exact dose and duration not given. Measured: 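Cisplatin cell death as a shift from the 50% death seen with control siRNA; siRNAs toxic or growth-blocking alone scored 0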. Scale: two-siRNA summed score (-2 to +2): higher = both siRNAs protect from cisplatin killing; -2 means both sensitise; mean protection from cisplatin (shift in death) and protection from cisplatin (shift in death), siRNA C and protection from cisplatin (shift in death), siRNA D: higher = protection from cisplatin killing. Active means: 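siRNAs harmful alone (LDH or WST-1) get 0; others get +1 for less and -1 for more cisplatin killing; genes are active when the two siRNAs give the same sign, summing to ±2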. Meaning of the calls: active = both siRNAs shift cisplatin killing the same way; inactive = no consistent shift, or siRNA harmful alone.
The whole screen tested about 23,000 reagents; this is an unselected part. 455 of all reagents (2%) count as active. 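Active includes both protection and sensitisation; some change values fall well beyond the stated -50 to +50 range.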 Unmarked entries are inactive. Not given: the amount of reagent.

target	two-siRNA summed score (-2 to +2)	mean protection from cisplatin (shift in death) (%)	protection from cisplatin (shift in death), siRNA C (%)	protection from cisplatin (shift in death), siRNA D (%)
LOC440447	0	-4.6	-10.4	1.3
XKRY	0	1.9	-2.5	6.2
ASTILCS	0	22.3	18.8	25.8
APH1A	-1	-15.7	-10.3	-21.2
FOXJ1	0	-1.5	-0.6	-2.4
KIAA2002	0	5.3	1.3	9.3
LOC401344	0	5.9	0.8	10.9
MAD2L1BP	0	3.7	14.4	-6.9
LOC441842	1	14.2	18.8	9.5
LOC439928	0	18.7	-4.5	41.9
ACAD11	1	12.6	7.6	17.5
ZSCAN32	0	-4.7	-3.2	-6.3
OR4N2	0	25.7	2.8	48.5
POTEA	1	17	28	6
POLDIP2	0	-3.2	-3.6	-2.9
H2BC6	0	8.6	10.9	6.4
GPHB5	-1	-6.7	-20	6.7
CFAP410	1	27	18.5	35.6
TMEM100	0	-4.4	-8.7	-0.2
HNRNPA1P56	0	2.5	0.1	4.9
LOC399786	0	0.3	-1.7	2.3
RB1CC1	-1	-1.3	12.1	-14.6
HPGD	0	-3.4	21	-27.7
FGA	0	-0.6	7	-8.3
LOC441761	0	6.6	8.6	4.6
EEF2KMT	1	12.5	9.8	15.1
HBS1L	0	0.8	7.1	-5.5
PRTFDC1	0	-2.6	-0.6	-4.6
LOC388616	0	8.7	9.9	7.5
PIEZO1	0	6.4	8.1	4.8
DCX	0	-3.2	1.8	-8.2
SGPP2	0	1.9	-7.7	11.4
ZNF561-AS1	0	-6.9	-10.2	-3.7
DUSP14	0	8.3	1	15.7
STK33	2 (active)	21.6	24.3	18.8
TBC1D1	-1	-7.4	-16.3	1.4
KATNA1	0	4.7	10.3	-0.8
ZSCAN9	1	-0.4	-14.3	13.6
LINC01566	0	3.5	16	-9.1

A portion of the results above, for reference:
target	two-siRNA summed score (-2 to +2)	mean protection from cisplatin (shift in death) (%)	protection from cisplatin (shift in death), siRNA C (%)	protection from cisplatin (shift in death), siRNA D (%)
ZSCAN32	0	-4.7	-3.2	-6.3
OR4N2	0	25.7	2.8	48.5
POTEA	1	17	28	6
